Some of the results follow.
What was measured:
Assay in all cases: log2 fold change, soluble protein after heating vs DMSO (PISA); higher = thermal stabilisation; K562 lysate, 10 uM; active = over 0.2 and 3.5 SD of the protein, either way, in both replicates (recomputed)
erlotinib = compound: C#Cc1cccc(Nc2ncnc3cc(OCCOC)c(OCCOC)cc23)c1 [erlotinib]
Summary of the method: (§1)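 K562 pellets were dounce-homogenised in PBS pH 7.4 containing 1 mM MgCl2, and the crude extract, at 1 mg/mL protein, was exposed to 10 μM compound for 30 min. Aliquots were heated for 3 min across 48°C-58°C, pooled, brought to 0.5% NP-40 at 4°C and spun at 21,000xg for 90 min, with the supernatant taken as soluble protein. TMTpro 16plex LC-MS/MS with equalised channel sums quantified that protein. Values are log-two fold changes in thermal stability relative to solvent controls, taken from duplicates.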

Sequences of proteins named here, by UniProt entry; tags and fusion partners are left off. A change or cut given only in a name is not applied to a line headed by its entry.
UniProt Q8N684: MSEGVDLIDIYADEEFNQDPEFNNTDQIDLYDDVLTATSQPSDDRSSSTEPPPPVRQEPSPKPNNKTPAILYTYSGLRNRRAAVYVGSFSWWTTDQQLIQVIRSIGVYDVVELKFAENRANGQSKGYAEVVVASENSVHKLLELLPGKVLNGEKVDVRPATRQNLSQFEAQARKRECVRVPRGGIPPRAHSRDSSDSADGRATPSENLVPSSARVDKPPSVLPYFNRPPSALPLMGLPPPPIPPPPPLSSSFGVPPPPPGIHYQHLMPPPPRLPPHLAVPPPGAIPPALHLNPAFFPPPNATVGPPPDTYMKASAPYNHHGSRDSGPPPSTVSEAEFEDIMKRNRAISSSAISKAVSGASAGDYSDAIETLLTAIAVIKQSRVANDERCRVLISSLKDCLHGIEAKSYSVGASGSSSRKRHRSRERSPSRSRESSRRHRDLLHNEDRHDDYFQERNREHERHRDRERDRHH
UniProt Q96KP4: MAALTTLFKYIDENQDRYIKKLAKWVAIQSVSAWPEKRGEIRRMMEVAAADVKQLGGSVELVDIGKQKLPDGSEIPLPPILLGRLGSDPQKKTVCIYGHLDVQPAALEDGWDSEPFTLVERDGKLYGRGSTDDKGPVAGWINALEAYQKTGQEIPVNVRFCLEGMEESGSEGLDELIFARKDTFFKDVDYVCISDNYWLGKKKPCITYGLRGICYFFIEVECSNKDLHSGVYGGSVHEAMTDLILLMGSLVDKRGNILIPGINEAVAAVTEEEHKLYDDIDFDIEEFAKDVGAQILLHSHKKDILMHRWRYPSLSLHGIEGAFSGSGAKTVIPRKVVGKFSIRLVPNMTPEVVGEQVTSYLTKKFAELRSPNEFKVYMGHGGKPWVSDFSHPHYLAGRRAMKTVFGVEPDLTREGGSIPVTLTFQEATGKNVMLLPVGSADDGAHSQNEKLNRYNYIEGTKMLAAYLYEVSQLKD
UniProt Q92905, whole entry, looked up: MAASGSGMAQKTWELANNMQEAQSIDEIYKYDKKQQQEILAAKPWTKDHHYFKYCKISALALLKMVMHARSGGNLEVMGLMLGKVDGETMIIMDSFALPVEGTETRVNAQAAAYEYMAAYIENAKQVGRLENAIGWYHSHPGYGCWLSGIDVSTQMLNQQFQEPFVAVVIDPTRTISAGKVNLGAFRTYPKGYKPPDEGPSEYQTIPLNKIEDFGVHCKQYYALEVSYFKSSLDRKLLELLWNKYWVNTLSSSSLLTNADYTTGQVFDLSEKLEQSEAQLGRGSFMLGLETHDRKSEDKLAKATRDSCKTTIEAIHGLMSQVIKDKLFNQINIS
UniProt Q6P4Q7: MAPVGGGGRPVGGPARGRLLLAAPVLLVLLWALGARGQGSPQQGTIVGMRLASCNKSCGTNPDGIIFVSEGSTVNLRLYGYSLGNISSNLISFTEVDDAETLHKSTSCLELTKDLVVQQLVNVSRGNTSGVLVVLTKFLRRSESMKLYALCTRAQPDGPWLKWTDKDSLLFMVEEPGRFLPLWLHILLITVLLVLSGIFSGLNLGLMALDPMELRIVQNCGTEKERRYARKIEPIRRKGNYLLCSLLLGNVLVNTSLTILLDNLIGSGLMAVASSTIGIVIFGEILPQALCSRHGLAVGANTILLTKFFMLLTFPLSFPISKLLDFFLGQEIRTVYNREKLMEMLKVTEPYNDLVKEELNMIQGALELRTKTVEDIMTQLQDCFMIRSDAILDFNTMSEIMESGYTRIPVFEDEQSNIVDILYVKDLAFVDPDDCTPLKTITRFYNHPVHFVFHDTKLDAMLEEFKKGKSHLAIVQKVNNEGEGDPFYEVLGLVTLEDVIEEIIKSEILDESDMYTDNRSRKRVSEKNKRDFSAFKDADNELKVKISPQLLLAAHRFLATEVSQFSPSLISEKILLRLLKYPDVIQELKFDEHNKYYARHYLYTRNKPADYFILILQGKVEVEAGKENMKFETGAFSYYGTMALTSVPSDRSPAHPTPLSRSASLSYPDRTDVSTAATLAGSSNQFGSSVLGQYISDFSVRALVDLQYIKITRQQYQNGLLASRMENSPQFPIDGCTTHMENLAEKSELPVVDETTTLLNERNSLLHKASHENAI
UniProt Q92600, whole entry, looked up: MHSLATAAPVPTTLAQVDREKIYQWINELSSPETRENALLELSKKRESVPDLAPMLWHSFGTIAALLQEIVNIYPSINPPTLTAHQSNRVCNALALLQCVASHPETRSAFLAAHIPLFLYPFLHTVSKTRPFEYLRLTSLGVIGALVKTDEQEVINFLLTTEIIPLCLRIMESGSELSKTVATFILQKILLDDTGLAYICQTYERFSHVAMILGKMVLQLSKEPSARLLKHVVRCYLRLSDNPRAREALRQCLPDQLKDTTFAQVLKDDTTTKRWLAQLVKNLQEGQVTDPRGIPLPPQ
UniProt Q99627: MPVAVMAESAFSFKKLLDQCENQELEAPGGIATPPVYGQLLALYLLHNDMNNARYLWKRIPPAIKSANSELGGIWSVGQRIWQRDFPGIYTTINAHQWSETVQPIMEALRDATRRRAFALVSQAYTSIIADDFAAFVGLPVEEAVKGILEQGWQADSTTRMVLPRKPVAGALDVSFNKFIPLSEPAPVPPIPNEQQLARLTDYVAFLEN
UniProt P61923: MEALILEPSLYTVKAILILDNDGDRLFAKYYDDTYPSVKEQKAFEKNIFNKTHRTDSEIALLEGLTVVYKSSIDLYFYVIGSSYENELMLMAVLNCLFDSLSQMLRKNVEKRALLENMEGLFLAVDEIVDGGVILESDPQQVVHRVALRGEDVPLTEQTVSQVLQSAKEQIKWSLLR
UniProt P31327: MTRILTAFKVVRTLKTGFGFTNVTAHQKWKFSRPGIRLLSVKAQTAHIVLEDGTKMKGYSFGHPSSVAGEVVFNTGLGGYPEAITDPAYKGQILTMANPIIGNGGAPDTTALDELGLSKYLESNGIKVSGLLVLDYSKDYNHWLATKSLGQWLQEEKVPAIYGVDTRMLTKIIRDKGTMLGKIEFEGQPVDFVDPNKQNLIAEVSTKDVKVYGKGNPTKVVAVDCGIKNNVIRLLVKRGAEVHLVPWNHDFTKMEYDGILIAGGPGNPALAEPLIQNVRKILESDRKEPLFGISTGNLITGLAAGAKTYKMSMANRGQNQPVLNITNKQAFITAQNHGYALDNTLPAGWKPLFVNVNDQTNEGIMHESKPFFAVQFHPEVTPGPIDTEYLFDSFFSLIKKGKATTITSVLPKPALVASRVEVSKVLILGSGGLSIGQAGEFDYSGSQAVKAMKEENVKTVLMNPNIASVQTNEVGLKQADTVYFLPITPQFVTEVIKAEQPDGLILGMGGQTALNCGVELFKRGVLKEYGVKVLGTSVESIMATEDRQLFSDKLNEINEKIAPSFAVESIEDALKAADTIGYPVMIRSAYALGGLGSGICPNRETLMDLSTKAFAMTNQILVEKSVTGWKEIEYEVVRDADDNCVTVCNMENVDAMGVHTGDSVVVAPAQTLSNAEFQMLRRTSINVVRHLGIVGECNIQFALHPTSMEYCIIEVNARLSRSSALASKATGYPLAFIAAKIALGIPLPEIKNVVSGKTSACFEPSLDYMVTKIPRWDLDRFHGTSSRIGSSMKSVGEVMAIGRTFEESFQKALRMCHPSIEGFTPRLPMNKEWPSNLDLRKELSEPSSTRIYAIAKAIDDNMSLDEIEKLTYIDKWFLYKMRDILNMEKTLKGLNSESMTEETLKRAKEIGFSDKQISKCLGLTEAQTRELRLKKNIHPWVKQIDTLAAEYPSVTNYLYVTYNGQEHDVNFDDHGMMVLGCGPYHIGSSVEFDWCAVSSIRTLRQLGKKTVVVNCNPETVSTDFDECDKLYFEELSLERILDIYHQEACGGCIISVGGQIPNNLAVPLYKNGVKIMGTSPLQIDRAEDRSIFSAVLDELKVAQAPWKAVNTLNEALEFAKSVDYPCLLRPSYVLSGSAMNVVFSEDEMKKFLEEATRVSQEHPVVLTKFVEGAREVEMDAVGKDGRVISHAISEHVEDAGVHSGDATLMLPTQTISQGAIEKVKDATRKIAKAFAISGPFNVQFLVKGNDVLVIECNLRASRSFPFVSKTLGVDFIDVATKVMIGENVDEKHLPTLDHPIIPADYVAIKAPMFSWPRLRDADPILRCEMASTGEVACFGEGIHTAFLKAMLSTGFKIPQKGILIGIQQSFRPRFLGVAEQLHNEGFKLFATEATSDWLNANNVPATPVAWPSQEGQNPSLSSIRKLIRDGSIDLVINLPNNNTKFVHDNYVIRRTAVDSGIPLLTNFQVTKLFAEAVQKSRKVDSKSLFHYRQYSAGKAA
UniProt Q6PJW8: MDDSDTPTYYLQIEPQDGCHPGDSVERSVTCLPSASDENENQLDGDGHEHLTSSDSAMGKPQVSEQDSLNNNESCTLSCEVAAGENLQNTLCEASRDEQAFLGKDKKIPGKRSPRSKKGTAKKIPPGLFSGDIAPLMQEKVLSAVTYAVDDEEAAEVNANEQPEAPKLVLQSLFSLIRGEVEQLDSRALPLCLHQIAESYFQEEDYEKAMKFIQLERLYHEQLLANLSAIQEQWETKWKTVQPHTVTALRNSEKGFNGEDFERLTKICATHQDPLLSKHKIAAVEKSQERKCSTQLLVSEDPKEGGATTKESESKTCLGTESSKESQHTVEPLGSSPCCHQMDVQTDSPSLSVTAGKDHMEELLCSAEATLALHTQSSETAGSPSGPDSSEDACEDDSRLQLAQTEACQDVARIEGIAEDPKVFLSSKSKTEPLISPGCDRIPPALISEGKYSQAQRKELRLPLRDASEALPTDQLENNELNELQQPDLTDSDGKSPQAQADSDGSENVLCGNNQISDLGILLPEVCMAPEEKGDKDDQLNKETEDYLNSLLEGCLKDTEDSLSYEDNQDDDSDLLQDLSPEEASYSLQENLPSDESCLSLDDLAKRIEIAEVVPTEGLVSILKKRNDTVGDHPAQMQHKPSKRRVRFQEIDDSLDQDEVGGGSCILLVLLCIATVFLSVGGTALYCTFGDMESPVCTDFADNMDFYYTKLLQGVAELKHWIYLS
UniProt O14579: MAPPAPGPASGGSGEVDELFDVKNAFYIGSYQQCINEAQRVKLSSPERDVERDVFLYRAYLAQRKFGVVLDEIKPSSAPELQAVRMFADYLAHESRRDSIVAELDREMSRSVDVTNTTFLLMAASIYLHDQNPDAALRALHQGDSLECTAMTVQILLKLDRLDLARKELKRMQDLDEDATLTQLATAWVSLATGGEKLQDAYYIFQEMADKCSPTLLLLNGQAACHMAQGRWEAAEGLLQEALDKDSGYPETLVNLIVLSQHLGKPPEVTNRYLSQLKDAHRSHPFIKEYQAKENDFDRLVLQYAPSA
UniProt O14548: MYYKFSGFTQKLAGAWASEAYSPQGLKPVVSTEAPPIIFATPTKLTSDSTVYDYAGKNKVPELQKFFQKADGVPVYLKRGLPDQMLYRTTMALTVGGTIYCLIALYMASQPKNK
UniProt Q9Y2R0: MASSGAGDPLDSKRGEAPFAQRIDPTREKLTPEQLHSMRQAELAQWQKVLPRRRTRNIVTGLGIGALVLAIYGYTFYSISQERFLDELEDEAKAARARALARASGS
UniProt Q49B96: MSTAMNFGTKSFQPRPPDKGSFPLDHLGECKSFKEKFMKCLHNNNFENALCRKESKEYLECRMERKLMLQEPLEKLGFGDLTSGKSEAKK
UniProt Q86X83, whole entry, looked up: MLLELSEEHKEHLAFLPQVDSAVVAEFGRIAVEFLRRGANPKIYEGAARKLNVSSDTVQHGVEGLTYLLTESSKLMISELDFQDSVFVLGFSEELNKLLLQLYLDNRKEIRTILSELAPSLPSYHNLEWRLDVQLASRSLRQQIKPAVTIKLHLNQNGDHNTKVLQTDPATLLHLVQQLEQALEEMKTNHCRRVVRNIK
UniProt Q5RI15: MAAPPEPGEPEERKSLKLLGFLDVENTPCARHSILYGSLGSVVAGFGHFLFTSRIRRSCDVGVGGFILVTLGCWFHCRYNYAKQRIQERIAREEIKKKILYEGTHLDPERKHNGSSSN
UniProt Q9UFF9, whole entry, looked up: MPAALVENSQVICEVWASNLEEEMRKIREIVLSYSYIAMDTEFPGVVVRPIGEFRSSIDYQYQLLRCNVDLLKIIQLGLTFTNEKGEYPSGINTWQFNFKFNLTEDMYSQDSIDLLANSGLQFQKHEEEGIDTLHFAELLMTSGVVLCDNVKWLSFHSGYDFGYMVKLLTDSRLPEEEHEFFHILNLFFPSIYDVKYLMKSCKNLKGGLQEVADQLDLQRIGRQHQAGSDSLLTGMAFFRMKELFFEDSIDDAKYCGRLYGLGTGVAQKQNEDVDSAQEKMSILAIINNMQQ
UniProt Q9H9Q2: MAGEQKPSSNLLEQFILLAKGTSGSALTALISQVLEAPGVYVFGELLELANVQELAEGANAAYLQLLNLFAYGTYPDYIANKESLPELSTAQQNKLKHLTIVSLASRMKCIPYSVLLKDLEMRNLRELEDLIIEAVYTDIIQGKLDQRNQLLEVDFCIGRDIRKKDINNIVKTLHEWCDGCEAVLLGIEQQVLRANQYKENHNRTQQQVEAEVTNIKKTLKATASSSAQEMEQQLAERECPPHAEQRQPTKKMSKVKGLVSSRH
UniProt P14406, whole entry, looked up: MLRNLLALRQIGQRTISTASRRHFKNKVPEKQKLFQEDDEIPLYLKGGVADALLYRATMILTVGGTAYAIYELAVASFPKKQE

[1] = compound: C/C(=N\NC(=O)C1=CC(=CC=C1)S(=O)(=O)N2CCOCC2)/C3=C(C=CC(=C3)Cl)O
Summary of the method: as §1

[2] = compound: C1=CC(=CC=C1C2=NC3=C(N2)C=C(C=C3)C(=O)N)OC4=CC=C(C=C4)Cl
Summary of the method: as §1

[3] = compound: C1=CC2=C(C=CC(=C2)/C=C\3/C(=O)NC(=NCC4=CC=CS4)S3)N=C1
Summary of the method: as §1

[4] = compound: C1=CC2=NC=CN=C2C=C1/C=C/3\C(=O)NC(=O)S3
Summary of the method: as §1

[5] = compound: C1=CC=C(C=C1)C2=NC(=C(N2)C3=CC=NC=C3)C4=CC(=C(C=C4)Cl)O
Summary of the method: as §1

[6] = compound: C1=CC=C2C(=C1)C3=NNC4=CC=CC(=C43)C2=O
Summary of the method: as §1

[7] = compound: C1CCN(C1)C(=O)NC2=CC=CC(=C2)NC3=NC=C(C(=N3)NCCC4=CN=CN4)Br
Summary of the method: as §1

[8] = compound: C1CN(CCC1(CC2=CC=C(C=C2)Cl)N)C3=NC=NC4=C3C=CN4
Summary of the method: as §1

IRAK-1-4 Inhibitor I = compound: C1COCCN1CCN2C3=CC=CC=C3N=C2NC(=O)C4=CC(=CC=C4)[N+](=O)[O-] [IRAK-1-4 Inhibitor I]
Summary of the method: as §1

Measured: log2 fold change

CPSF7 isoform 3 (UniProt Q8N684)
inactive: erlotinib -0.009 | [1] -0.041 | [2] 0.027 | [3] -0.006 | [4] -0.032 | [5] -0.035 | [6] 0.001 | [7] -0.008 | [8] 0.012 | IRAK-1-4 Inhibitor I -0.017

COL6A5 (UniProt A8TX70)
inactive: erlotinib 0.064 | [1] 0.161 | [2] 0.02 | [3] -0.062 | [4] -0.167 | [5] 0.027 | [6] 0.014 | [7] 0.014 | [8] -0.052 | IRAK-1-4 Inhibitor I 0.046

CNDP2 (UniProt Q96KP4)
inactive: erlotinib -0.016 | [1] 0.004 | [2] 0.02 | [3] -0.038 | [4] -0.009 | [5] -0.022 | [6] 0.007 | [7] 0.039 | [8] 0.041 | IRAK-1-4 Inhibitor I 0.051

COPS5 (UniProt Q92905)
inactive: erlotinib 0.003 | [1] -0.007 | [2] -0.007 | [3] -0.005 | [4] 0 | [5] -0.006 | [6] 0.029 | [7] -0.005 | [8] -0.016 | IRAK-1-4 Inhibitor I 0.011

CNN2 (UniProt Q99439)
inactive: erlotinib -0.004 | [1] 0.017 | [2] 0.044 | [3] -0.046 | [4] 0.001 | [5] 0.036 | [6] 0.017 | [7] 0.029 | [8] 0.018 | IRAK-1-4 Inhibitor I -0.007

COA1 (UniProt Q9GZY4)
inactive: erlotinib 0.039 | [1] -0.059 | [2] -0.091 | [3] -0.028 | [4] -0.038 | [5] 0.012 | [6] -0.007 | [7] -0.031 | [8] 0.015 | IRAK-1-4 Inhibitor I 0.031

CPSF6 isoform 2 (UniProt Q16630)
inactive: erlotinib 0 | [1] 0 | [2] -0.02 | [3] 0.023 | [4] -0.049 | [5] -0.017 | [6] 0.05 | [7] 0.009 | [8] -0.002 | IRAK-1-4 Inhibitor I -0.037

CNNM4 (UniProt Q6P4Q7)
inactive: erlotinib -0.07 | [1] 0.08 | [2] -0.074 | [3] 0.048 | [4] 0.017 | [5] -0.079 | [6] -0.033 | [7] 0.05 | [8] 0.157 | IRAK-1-4 Inhibitor I -0.032

CNOT9 (UniProt Q92600)
inactive: erlotinib 0.034 | [1] -0.02 | [2] 0.013 | [3] 0.048 | [4] 0.012 | [5] 0.001 | [6] -0.038 | [7] -0.029 | [8] 0.039 | IRAK-1-4 Inhibitor I 0.062

CNOT10 (UniProt Q9H9A5)
inactive: erlotinib 0.005 | [1] -0.002 | [2] 0.007 | [3] 0.027 | [4] 0.013 | [5] -0.027 | [6] -0.018 | [7] -0.024 | [8] 0.045 | IRAK-1-4 Inhibitor I 0.026

COPS8 (UniProt Q99627)
inactive: erlotinib -0.03 | [1] -0.042 | [2] -0.007 | [3] -0.008 | [4] -0.066 | [5] -0.032 | [6] 0.057 | [7] -0.01 | [8] 0.069 | IRAK-1-4 Inhibitor I -0.008

COPS2 isoform 2 (UniProt P61201)
inactive: erlotinib -0.042 | [1] 0.037 | [2] -0.002 | [3] 0.002 | [4] 0.001 | [5] -0.006 | [6] 0.017 | [7] 0.034 | [8] 0.006 | IRAK-1-4 Inhibitor I -0.006

COPZ1 isoform 4 (UniProt P61923)
inactive: erlotinib -0.029 | [1] 0.065 | [2] -0.05 | [3] -0.036 | [4] -0.142 | [5] -0.006 | [6] 0 | [7] -0.08 | [8] -0.028 | IRAK-1-4 Inhibitor I -0.015

CPS1 isoform 3 (UniProt P31327)
inactive: erlotinib -0.015 | [1] -0.082 | [2] -0.12 | [3] 0.005 | [4] 0.023 | [5] 0.011 | [6] 0.041 | [7] 0.022 | [8] 0.071 | IRAK-1-4 Inhibitor I 0.032

CNST (UniProt Q6PJW8)
inactive: erlotinib 0.044 | [1] -0.013 | [2] 0.05 | [3] 0.01 | [4] -0.004 | [5] 0.007 | [6] -0.054 | [7] -0.022 | [8] 0.036 | IRAK-1-4 Inhibitor I 0.023

COPE (UniProt O14579)
inactive: erlotinib 0.045 | [1] 0.11 | [2] 0.018 | [3] 0.056 | [4] 0.029 | [5] -0.012 | [6] -0.005 | [7] -0.005 | [8] 0.03 | IRAK-1-4 Inhibitor I 0.023

COX7A2L (UniProt O14548)
inactive: erlotinib -0.008 | [1] -0.024 | [2] -0.009 | [3] 0.082 | [4] 0.024 | [5] 0.017 | [6] 0.011 | [7] -0.05 | [8] 0.012 | IRAK-1-4 Inhibitor I -0.007

COQ9 (UniProt O75208)
inactive: erlotinib -0.015 | [1] -0.075 | [2] -0.001 | [3] 0.041 | [4] 0.046 | [5] 0 | [6] -0.029 | [7] -0.02 | [8] 0.029 | IRAK-1-4 Inhibitor I -0.011

COMMD9 (UniProt Q9P000)
inactive: erlotinib 0.056 | [1] -0.079 | [2] -0.005 | [3] 0.002 | [4] -0.05 | [5] 0.013 | [6] 0.026 | [7] -0.037 | [8] 0.128 | IRAK-1-4 Inhibitor I 0.002

COA3 (UniProt Q9Y2R0)
inactive: erlotinib -0.049 | [1] -0.006 | [2] 0.066 | [3] 0.025 | [4] 0.015 | [5] 0 | [6] -0.034 | [7] -0.022 | [8] 0.018 | IRAK-1-4 Inhibitor I 0.017

CPPED1 (UniProt Q9BRF8)
inactive: erlotinib -0.046 | [1] 0.021 | [2] 0 | [3] 0.012 | [4] 0.011 | [5] -0.024 | [6] 0.019 | [7] -0.016 | [8] -0.007 | IRAK-1-4 Inhibitor I 0.004

COX19 (UniProt Q49B96)
inactive: erlotinib -0.006 | [1] 0.063 | [2] 0.017 | [3] -0.048 | [4] 0.028 | [5] 0.007 | [6] 0.027 | [7] 0.048 | [8] -0.01 | IRAK-1-4 Inhibitor I 0.035

COMMD2 (UniProt Q86X83)
inactive: erlotinib 0.043 | [1] -0.074 | [2] -0.055 | [3] 0.02 | [4] 0.028 | [5] -0.054 | [6] -0.044 | [7] 0.006 | [8] -0.033 | IRAK-1-4 Inhibitor I 0.045

COPRS (UniProt Q9NQ92)
inactive: erlotinib -0.052 | [1] 0.019 | [2] 0.086 | [3] 0.007 | [4] -0.097 | [5] 0.027 | [6] -0.048 | [7] -0.049 | [8] 0.033 | IRAK-1-4 Inhibitor I 0.021

COX20 isoform 2 (UniProt Q5RI15)
inactive: erlotinib 0.022 | [1] 0.004 | [2] -0.018 | [3] -0.001 | [4] -0.129 | [5] 0.016 | [6] -0.036 | [7] -0.09 | [8] 0.034 | IRAK-1-4 Inhibitor I 0.048

Reprinted at random: two records from the list
COQ9 (UniProt O75208)
inactive: erlotinib -0.015 | [1] -0.075 | [2] -0.001 | [3] 0.041 | [4] 0.046 | [5] 0 | [6] -0.029 | [7] -0.02 | [8] 0.029 | IRAK-1-4 Inhibitor I -0.011

CPSF7 isoform 3 (UniProt Q8N684)
inactive: erlotinib -0.009 | [1] -0.041 | [2] 0.027 | [3] -0.006 | [4] -0.032 | [5] -0.035 | [6] 0.001 | [7] -0.008 | [8] 0.012 | IRAK-1-4 Inhibitor I -0.017

(listing goes on)

CNOT8 (UniProt Q9UFF9)
inactive: erlotinib 0.104 | [1] -0.033 | [2] -0.033 | [3] 0 | [4] -0.029 | [5] 0.016 | [6] -0.078 | [7] -0.02 | [8] 0.013 | IRAK-1-4 Inhibitor I -0.018

CNOT11 (UniProt Q9UKZ1)
inactive: erlotinib 0.014 | [1] 0.015 | [2] -0.003 | [3] 0.002 | [4] 0.025 | [5] -0.002 | [6] -0.05 | [7] -0.014 | [8] 0.025 | IRAK-1-4 Inhibitor I 0.018

COPS7B isoform 3 (UniProt Q9H9Q2)
inactive: erlotinib 0.007 | [1] -0.03 | [2] 0.069 | [3] 0.019 | [4] -0.007 | [5] 0.02 | [6] 0 | [7] 0.045 | [8] -0.009 | IRAK-1-4 Inhibitor I -0.005

CPD (UniProt O75976)
inactive: erlotinib 0.001 | [1] -0.067 | [2] 0.033 | [3] -0.01 | [4] -0.008 | [5] 0 | [6] -0.056 | [7] -0.05 | [8] 0.08 | IRAK-1-4 Inhibitor I 0.045

COX7A2 (UniProt P14406)
inactive: erlotinib -0.01 | [1] -0.023 | [2] 0.047 | [3] -0.053 | [4] 0.026 | [5] -0.017 | [6] -0.01 | [7] -0.076 | [8] 0.045 | IRAK-1-4 Inhibitor I -0.007

Source: the supplement of paper PMC10849652
